Laboratory results reported in article PMC4890791.
No constants are given. Whether binding was seen depends on the method and setting. A result given as binding can be weak or reduced; the word gives no strength.

Target: T1, V. alginolyticus RpoE (sigma factor E) (V. alginolyticus)
T1 sequence: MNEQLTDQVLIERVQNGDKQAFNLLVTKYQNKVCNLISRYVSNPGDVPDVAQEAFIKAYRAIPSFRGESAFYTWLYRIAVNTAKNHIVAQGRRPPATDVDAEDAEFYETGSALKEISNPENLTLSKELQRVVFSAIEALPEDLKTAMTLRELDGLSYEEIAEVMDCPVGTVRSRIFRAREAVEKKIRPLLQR
Assay: two-hybrid; bacterial two-hybrid system; read out qualitatively on X-gal plate and quantitatively by β-galactosidase activity

- binding: binds
Substance: V. alginolyticus RseA (anti-sigma factor)
